# Reference: PubChem BioAssay AID1671190 (National Center for Advancing Translational Sciences (NCATS), 2021)
# Sequences of proteins named here, by UniProt entry; tags and fusion partners are left off. A change or cut given only in a name is not applied to a line headed by its entry.
# UniProt P18054: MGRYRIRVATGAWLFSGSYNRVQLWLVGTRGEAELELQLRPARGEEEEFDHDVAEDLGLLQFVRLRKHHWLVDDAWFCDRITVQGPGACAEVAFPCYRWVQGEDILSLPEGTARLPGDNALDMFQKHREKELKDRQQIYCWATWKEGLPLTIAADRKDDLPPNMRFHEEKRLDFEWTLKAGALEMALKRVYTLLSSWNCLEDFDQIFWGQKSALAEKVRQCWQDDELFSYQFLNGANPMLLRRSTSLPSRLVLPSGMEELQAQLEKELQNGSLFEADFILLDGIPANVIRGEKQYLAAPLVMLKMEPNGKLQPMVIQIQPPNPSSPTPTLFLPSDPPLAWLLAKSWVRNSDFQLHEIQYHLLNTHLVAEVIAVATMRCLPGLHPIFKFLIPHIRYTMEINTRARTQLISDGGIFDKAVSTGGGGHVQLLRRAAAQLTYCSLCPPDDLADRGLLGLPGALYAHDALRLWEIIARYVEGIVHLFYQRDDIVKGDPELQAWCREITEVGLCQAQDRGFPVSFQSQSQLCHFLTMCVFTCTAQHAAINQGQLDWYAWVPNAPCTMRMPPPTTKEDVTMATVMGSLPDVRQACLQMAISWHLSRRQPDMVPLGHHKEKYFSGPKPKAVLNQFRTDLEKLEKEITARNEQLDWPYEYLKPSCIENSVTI
# The campaign covered roughly 580,000 compounds. About 6,100 (1.1%) were called active. Inconclusive results, whose numbers are uncertain, are shown with a selection of clear calls. Calls follow the shape of the dose curve; as a rule, active = well fitted inhibition curve with a large enough effect; inconclusive = small, poorly fitted or top-dose-only effect, or another doubt; inactive = no such curve, though single readings can be large or run the other way. Potencies of inconclusive entries are doubtful fits and often do not repeat.
# Target: Polyunsaturated fatty acid lipoxygenase ALOX12 (Homo sapiens) (UniProt P18054)
# Experiment: Primary qHTS assay for inhibitors of human arachidonate 12S-lipoxygenase (ALOX12): Round 2
# Details: purified 12hLO, xylenol orange hydroperoxide absorbance; activity change, negative = inhibition: at 108 µM (top of the series) unless noted
# Procedure, shortened: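 Hydroperoxide product was detected by ferrous iron/xylenol orange as the 573 to 405 nm absorbance ratio. Arachidonic acid at 40 uM (final) was turned over for 30 min at room temperature by 150 nM human 12hLO, pH 7.0 Hepes buffer, after 15 min compound preincubation.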
# % is scaled to controls: 0 for no effect and ±100 for the full control effect; potency is read from the fitted curve at half-maximal effect.
SMILES,Potency,"activity change, negative = inhibition"
COc1cc(OC)cc(-c2sc3ccc(OC)cc3c2-c2ccc3cc[nH]c3c2)c1,"inconclusive: 39.8 µM [inhibitor, partial curve, poor fit]",
CCOc1ccc(Cl)cc1CNCCCSc1nc(C)cc(C)n1,"inconclusive: 79.4 µM [inhibitor, single point]",
COc1ccc(/C=N/OCc2ccc(C)cc2)cc1OCc1ccccc1,"inconclusive: 141 µM [inhibitor, single point]",
COc1ccc(-c2c(-c3ccc(OCCN4CCC(C(N)=O)CC4)cc3O)n[nH]c2C)cc1,,inactive: -6.86%
OCCCNC(=S)Nc1ccc(Oc2ccccc2)cc1,"inconclusive: 25.1 µM [inhibitor, partial curve, poor fit]",
COc1ccc(-c2n[nH]c(=S)n2-c2cc(OC)ccc2OC)cc1,"inconclusive: 22.4 µM [inhibitor, partial curve, poor fit]",
Cc1cccc(Cn2c(-c3ccc(Cl)cc3)nc(C)c(CCO)c2=O)c1,"inconclusive: 20 µM [inhibitor, partial curve]",
CC(C)NC(=O)N[C@H]1CCN2C(=O)c3cc(Br)ccc3NC(=O)[C@@H]2C1,"inconclusive: 100 µM [inhibitor, partial curve, poor fit]",
COC(=O)CCNC(=O)NC(CCC(C)C)c1c(-n2cccc2)sc2c1CCN(C)C2 (centres undefined),,inactive: 3.28%
Cc1ccccc1N1CCN(Cc2c[nH]c3ccccc23)CC1,"inconclusive: 0.708 µM [inhibitor, full curve]",
CCN1c2ccccc2-c2nc(SCC(=O)NCc3ccccc3)ncc2S1(=O)=O,"inconclusive: 100 µM [inhibitor, partial curve, poor fit]",
Oc1ccc(C2(c3cccc(Cl)c3)CCCCC2)cc1,"inconclusive: 35.5 µM [inhibitor, partial curve, poor fit]",
Cc1ccc(-c2nc(C(=O)N3CCN(c4cccc(C)c4C)CC3)no2)cc1,,inactive: 4.83%
S=C(Nc1ccc(Cl)c(Cl)c1)NC1CCN(Cc2ccccc2)CC1,"inconclusive: 70.8 µM [inhibitor, partial curve, poor fit]",
CC(C)(C)OC(=O)NCCCC[C@H](NC(=O)c1nc[nH]c1C(=O)N[C@@H](CCCCNC(=O)OC(C)(C)C)C(=O)OC(C)(C)C)C(=O)OC(C)(C)C,,inactive: 10.2%
COc1cccc(N2CCN(c3ncnc4c3[nH]c3ccccc34)CC2C)c1 (centres undefined),"inconclusive: 112 µM [inhibitor, single point]",
Cc1ccc2nc(-c3ccc(O)cc3)c(Nc3ccc(Cl)cc3)n2c1,"inconclusive: 44.7 µM [inhibitor, partial curve, poor fit]",
CCC(=O)N1CCc2cc(S(=O)(=O)NCCC(=O)Nc3cc(C)ccc3OC)ccc21,,inactive: -0.847%
Clc1ccc(-c2csc3ncnc(N4CCc5ccccc5C4)c23)cc1,,inactive: -11.8%
CCN(CC)CCOc1ccc(Br)cc1,"inconclusive: 4.47 µM [inhibitor, full curve, poor fit]",
O=C(NCc1nc(-c2cccs2)no1)c1ccc2c(c1)OCCO2,,inactive: -0.654%
O=C(OCC(=O)N1CCc2ccccc21)c1cncc(Br)c1,"inconclusive: 7.94 µM [inhibitor, partial curve, poor fit]",
CC1=C(c2ccccc2)[N+](=O)C(C)(c2ccc(C)cc2)N1[O-] (centres undefined),,inactive: 11.2%

SMILES,Potency,"activity change, negative = inhibition"
O=C(O)c1cc(S(=O)(=O)NC2CCCc3ccccc32)ccc1O (centres undefined),"inconclusive: 28.2 µM [inhibitor, partial curve, poor fit]",
CCn1nccc1C(=O)N1[C@@H]2CC[C@H]1CC(NC(=O)c1ccncc1)C2 (some centres undefined),,inactive: 55%
CC(=O)Cc1cc2cc([N+](=O)[O-])ccc2oc1=O,,inactive: 39.8%
CC1CCc2c(sc3ncnc(N(C)CC(=O)N(C)C)c23)C1 (centres undefined),"inconclusive: 31.6 µM [inhibitor, partial curve, poor fit]",
CC1=C(C(N)=O)N2C(=O)[C@@H](NC(=O)Cc3ccccc3)C2SC1 (some centres undefined),"inconclusive: 44.7 µM [inhibitor, partial curve, poor fit]",
CCCCCCN(C(=O)CCCCCN1C(=O)NC(c2ccccc2)C(C(=O)OCc2ccccc2)=C1C)C(C(=O)NCCCC)c1ccc(OCC(=O)OC)c(C(=O)OC)c1 (centres undefined),"inconclusive: 4.47 µM [inhibitor, single point]",
CC(=O)c1cccc(NC(=O)Cn2cnc(S(=O)(=O)N3CCCC3)c2)c1,,inactive: 4.63%
CCOC(=O)[C@H]1[C@H]2COc3ccc(C)cc3[C@@H]2N2C(=O)c3ccccc3NC(=O)[C@@]12C,"inconclusive: 89.1 µM [inhibitor, single point]",
O=C(NC1C2CC3CC(C2)CC1C3)c1ccc(Cl)s1 (centres undefined),"inconclusive: 3.16 µM [inhibitor, full curve, poor fit]",
Cc1ccc(S(=O)(=O)CC(CN2CCCCC2)N2CCCCC2)cc1 (centres undefined),"inconclusive: 0.447 µM [inhibitor, full curve]",
CC(C)[C@@H](CSc1ccccc1)N1CCN(Cc2ccccc2)CCC1=O,,inactive: 0.107%
CCc1nc(N2CCN(C(C)=O)CC2)c2c3c(sc2n1)CC(C(C)(C)C)CC3 (centres undefined),,inactive: 12%
COc1cccc(CNC(=S)Nc2cccc(Cl)c2C)c1,"inconclusive: 44.7 µM [inhibitor, partial curve, poor fit]",
COC(=O)c1c(NC(=O)c2ccccc2)sc2c1CC(C)(C)OC2,,inactive: 2.79%
Cc1cc2c(Nc3cccc(O)c3)ncnc2s1,"inconclusive: 35.5 µM [inhibitor, single point]",
COc1ccc(NC(=O)CSc2nc3[nH]ncc3c(=O)[nH]2)cc1OC,,inactive: -0.595%
Cc1ccc(C(=O)N/C(=C\c2ccc(-c3ccccc3[N+](=O)[O-])o2)C(=O)NCCN(C)C)cc1,,inactive: 25.8%
COC(=O)c1cc(S(=O)(=O)Nc2cccc(S(N)(=O)=O)c2)oc1C,"inconclusive: 112 µM [inhibitor, single point]",
CC(=O)Nc1ccc(NC(=O)NC(C)c2cccc(Cl)c2)cc1 (centres undefined),"inconclusive: 141 µM [inhibitor, single point]",
O=C(NC(=S)Nc1ccc2c(c1)OCCO2)c1cccc2ccccc12,active: 15.8 µM,
O=C(CN1CCCC1)Nc1ccc(S(=O)(=O)N2CCCCC2)cc1,,inactive: -6.65%
O=C(Nc1cccs1)NC1CCCC1,"inconclusive: 39.8 µM [inhibitor, partial curve, poor fit]",

SMILES,Potency,"activity change, negative = inhibition"
CCCNC(=O)c1cn(CC)c2cc(N3CCN(C)CC3)c(F)cc2c1=O,,inactive: 0%
Cc1ccccc1NC(=S)NC(NC(=O)c1ccco1)C(Cl)(Cl)Cl (centres undefined),"inconclusive: 50.1 µM [inhibitor, partial curve, poor fit]",
COC(=O)c1ccccc1NC(=S)NC(=O)c1ccc2c(c1)OCO2,"inconclusive: 14.1 µM [inhibitor, partial curve]",
CCn1c(SCC(=O)N2c3ccccc3Sc3ccccc32)nnc1-c1ccco1,"inconclusive: 39.8 µM [inhibitor, partial curve, poor fit]",
CC(NC(=O)c1nccnc1N)c1ccc(F)cc1 (centres undefined),,inactive: 11.3%
C/C(=N/NC(=O)c1sc(NS(=O)(=O)c2ccccc2)nc1C)c1ccccc1,,inactive: -1.73%
O=C(CCN1C(=O)/C(=C/C=C/c2ccccc2)SC1=S)Nc1nccs1,"inconclusive: 50.1 µM [inhibitor, partial curve, poor fit]",
COc1cccc(OC)c1OCCOc1ccccc1OC(C)C,,inactive: -18.6%
Oc1ccc(/C=N/N2CCN(C3c4ccccc4-c4ccccc43)CC2)cc1O,active: 17.8 µM,
COc1ccc(-n2nnc(-c3nsc(NC(=O)c4cccs4)n3)c2C)cc1OC,,inactive: -20.3%
CN(Cc1ccc(-c2ccccc2)cc1)C(=O)Cc1cccc(Cl)c1,"inconclusive: 70.8 µM [inhibitor, partial curve]",
CC1CN(C(=O)COC(=O)CSc2ccc([N+](=O)[O-])cc2)CC(C)O1 (centres undefined),,inactive: -9.32%
CCN(CC)CCCOc1nc(C)nc2c1oc1ccccc12,"inconclusive: 35.5 µM [inhibitor, partial curve]",
Cc1ccccc1OCC(=O)NCCNC(=O)c1ccccn1,,inactive: -3.58%
CC(C(=O)N1c2ccccc2CC1C)N1CCN(S(=O)(=O)c2ccccc2F)CC1 (centres undefined),"inconclusive: 4.47 µM [inhibitor, full curve, poor fit]",
O=C1c2ccccc2NC(c2csc(-c3ccc(Cl)cc3)n2)N1Cc1ccco1 (centres undefined),"inconclusive: 8.91 µM [inhibitor, partial curve, poor fit]",
O=C(O)CC/C(=C\c1cccc(NC(=O)c2ccccc2Cl)c1)c1nc2ccccc2s1,"inconclusive: 44.7 µM [inhibitor, partial curve, poor fit]",
CCCCCCCC[n+]1cccc(C(=O)N2c3c(nc(N)[nH]c3=O)NC(C)C2C)c1 (centres undefined),active: 44.7 µM,
CCOc1ccccc1-c1noc(COC(=O)Cc2n[nH]c(=O)c3ccccc23)n1,"inconclusive: 28.2 µM [inhibitor, partial curve]",
COC(=O)c1ccc(CNC(=O)c2ccc(S(=O)(=O)N3CCCCCC3)cc2)cc1,"inconclusive: 112 µM [inhibitor, single point]",
CC(=O)c1cc(CN2CCCC(C(=O)c3cccc(OC(C)C)c3)C2)cs1 (centres undefined),,inactive: 29.6%
COc1ccc(OCCN(C)Cc2c(O)ccc3ccccc23)cc1,"inconclusive: 50.1 µM [inhibitor, partial curve, poor fit]",
[O-]/C(=C(\C(=S)Nc1ccc(SC(F)F)cc1)[n+]1ccccc1)c1cc(Cl)ccc1Cl,"inconclusive: 39.8 µM [inhibitor, partial curve, poor fit]",

# Single values from the results shown.
# Under Potency, CN(Cc1ccc(-c2ccccc2)cc1)C(=O)Cc1cccc(Cl)c1 shows inconclusive: 70.8 µM [inhibitor, partial curve]
# Under Potency, Oc1ccc(C2(c3cccc(Cl)c3)CCCCC2)cc1 shows inconclusive: 35.5 µM [inhibitor, partial curve, poor fit]
# Under activity change, negative = inhibition, CC1CN(C(=O)COC(=O)CSc2ccc([N+](=O)[O-])cc2)CC(C)O1 (centres undefined) shows inactive: -9.32%
